{"sequences": {"note": "Amino acid sequences for entries named in this document (tags omitted).", "UniProt Q0JBA9, entry or part of it": "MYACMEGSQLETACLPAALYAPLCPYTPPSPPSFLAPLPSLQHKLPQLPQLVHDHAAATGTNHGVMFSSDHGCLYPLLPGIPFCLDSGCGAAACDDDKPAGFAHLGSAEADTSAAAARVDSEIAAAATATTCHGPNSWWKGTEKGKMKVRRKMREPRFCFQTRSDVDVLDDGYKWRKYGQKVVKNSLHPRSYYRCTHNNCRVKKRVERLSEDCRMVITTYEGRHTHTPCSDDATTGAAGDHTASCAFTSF"}, "source": "paper PMC7819943", "about": "“Rice protein-binding microarrays: a tool to detect cis-acting elements near promoter regions in rice”", "note": "The other results are listed elsewhere or left out.", "data": [{"biological_target": "OsWRKY34 (Oryza sativa, UniProt Q0JBA9 1-250)", "assay": "protein-binding microarray (RPBM); PBS, 2% BSA, 51.3 ng/ul salmon testes DNA, 50 uM zinc acetate, 200 nM TF, 25 C, 1 h; high values mean tight binding", "conditions": "protein: recombinant; tags: N-terminal polyhistidine and DsRed monomer fusion (pET32a); label: CyDye5-dUTP incorporated in the synthesized complementary strand; 3' TTTTT single-stranded linker to array surface; dsDNA, one strand shown", "outline": "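The binding signal is fluorescence intensity per feature, in arbitrary units, read on an Axon 4000B scanner. Polyhistidine- and DsRed-tagged transcription factors (N-terminal fusions) from E. coli BL21-CodonPlus were purified on Ni–NTA and applied at 200 nM for 1 h at 25 °C to a double-stranded, BSA-blocked custom Agilent array in buffer with 50 µM zinc acetate.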", "values": [{"sequence": "TCGCATATTCTTGTTCTTTTCTTTCCCCTGAACTAATAGCCGGAGTCACCTAGTGCAG", "binding signal": "8370 fluorescence intensity (a.u.)"}, {"sequence": "TGATGCTATACACAACTCTTTCTCTTGCTAACTGTGCTTACGGAGTCACCTAGTGCAG", "binding signal": "8400 fluorescence intensity (a.u.)"}, {"sequence": "TGCCACACTTTGCCATACTTGAGGTTAGACAAGTTTGACCCGGAGTCACCTAGTGCAG", "binding signal": "9090 fluorescence intensity (a.u.)"}, {"sequence": "GGGCTAGTTCCGATCGGTACTAGTTCGGGGCGTGACACACCGGAGTCACCTAGTGCAG", "binding signal": "9460 fluorescence intensity (a.u.)"}, {"sequence": "TCGTCGACGTGGGAAGGGGTGGTCCGTCCGATCTGAATAACGGAGTCACCTAGTGCAG", "binding signal": "8440 fluorescence intensity (a.u.)"}, {"sequence": "ATTTGTATTGAGCTTTGTGTATATCTGTTTGGCCCAGTTGCGGAGTCACCTAGTGCAG", "binding signal": "9150 fluorescence intensity (a.u.)"}, {"sequence": "ACGCACGATGCTTTGACTATGGATGGCCTTATCATGTATTCGGAGTCACCTAGTGCAG", "binding signal": "9390 fluorescence intensity (a.u.)"}, {"sequence": "GGTGACAGTTTGGTTAGTGACAAATAGTTACATTCTCGTTCGGAGTCACCTAGTGCAG", "binding signal": "9140 fluorescence intensity (a.u.)"}, {"sequence": "TCCGACTGCACGCCCGCTGGAACCACGCGCCCTACCCCGCCGGAGTCACCTAGTGCAG", "binding signal": "9210 fluorescence intensity (a.u.)"}, {"sequence": "CGCTCACTCCTCTCCCGCGCTGACCACCTCTGCATGCGCTCGGAGTCACCTAGTGCAG", "binding signal": "8060 fluorescence intensity (a.u.)"}, {"sequence": "TCATGCAATTTGGTTGAAGCTGTCCTATACTATTATCCTTCGGAGTCACCTAGTGCAG", "binding signal": "9060 fluorescence intensity (a.u.)"}, {"sequence": "CTCTCTATTTCGTGTTATAAGTCACTTTGATTTTTTTTCACGGAGTCACCTAGTGCAG", "binding signal": "8860 fluorescence intensity (a.u.)"}, {"sequence": "TATACCCTAAATTATTTTTTTGCATCGTTAATTTTTTATACGGAGTCACCTAGTGCAG", "binding signal": "8050 fluorescence intensity (a.u.)"}, {"sequence": "TCTTTCTTGGTGTTTGTTCAATATTTGTTTCATCCATGCTCGGAGTCACCTAGTGCAG", "binding signal": "8180 fluorescence intensity (a.u.)"}, {"sequence": "CTAGGACCTGGTACCTGTGATATGTGTATCCTGTTGCAACCGGAGTCACCTAGTGCAG", "binding signal": "8050 fluorescence intensity (a.u.)"}, {"sequence": "ATCCTTTCTCTTCTCAGATCTCAACAACTCGTTTTTGATCCGGAGTCACCTAGTGCAG", "binding signal": "9070 fluorescence intensity (a.u.)"}, {"sequence": "ACTGCCTAGTACTGTGGGAATTGATTGTGGTTTGCTACTTCGGAGTCACCTAGTGCAG", "binding signal": "8220 fluorescence intensity (a.u.)"}, {"sequence": "CTCACCTCATCTCATGGCGTTTTTGTTATCTGCTCCACCTCGGAGTCACCTAGTGCAG", "binding signal": "8540 fluorescence intensity (a.u.)"}, {"sequence": "GTAATCTCGGAAATGTGGGGTTGTTGCGGTTGATTTTTTGCGGAGTCACCTAGTGCAG", "binding signal": "10100 fluorescence intensity (a.u.)"}, {"sequence": "ATGATGCCTTGATGCATGTGTGCGGTTGCTCTTTTTTTTTCGGAGTCACCTAGTGCAG", "binding signal": "10100 fluorescence intensity (a.u.)"}, {"sequence": "ATTACCCTAATCATCATTCATTCATGTATAGCTCATCCTACGGAGTCACCTAGTGCAG", "binding signal": "8810 fluorescence intensity (a.u.)"}, {"sequence": "CACAGTTCTCTTATTGCCATTTTTTGTGATTGATATTTGACGGAGTCACCTAGTGCAG", "binding signal": "8540 fluorescence intensity (a.u.)"}, {"sequence": "AATGTTCAAAATTGTGCAATCAAGGTCTTACGGCAGTATACGGAGTCACCTAGTGCAG", "binding signal": "8120 fluorescence intensity (a.u.)"}, {"sequence": "ATCCATCCGCCGCCGCCGCCGCCGCCGCCGCCACTTTATGCGGAGTCACCTAGTGCAG", "binding signal": "10300 fluorescence intensity (a.u.)"}, {"sequence": "TACTTTAATTTTGGATAGACTAGTTCTTCCATGCTTTGCTCGGAGTCACCTAGTGCAG", "binding signal": "8590 fluorescence intensity (a.u.)"}, {"sequence": "TGGGGAGTGATTTCTGGTATTGCGGTTGAGGGATACGATTCGGAGTCACCTAGTGCAG", "binding signal": "9560 fluorescence intensity (a.u.)"}, {"sequence": "GTTACACCTTTCAACCCTCTTCTATGTTCTAACAGCCAACCGGAGTCACCTAGTGCAG", "binding signal": "8840 fluorescence intensity (a.u.)"}, {"sequence": "ATCGCGCTCCCACGCCGCTCGCCTCGTCGACCTCGTCACCCGGAGTCACCTAGTGCAG", "binding signal": "9380 fluorescence intensity (a.u.)"}, {"sequence": "GAACTTCTTTAGTTATGATCGTTTTGCTATGTGGATTGATCGGAGTCACCTAGTGCAG", "binding signal": "8330 fluorescence intensity (a.u.)"}, {"sequence": "ACTAACATGGTAGATTGCGCATTTATTTGTACTGTATTATCGGAGTCACCTAGTGCAG", "binding signal": "8820 fluorescence intensity (a.u.)"}, {"sequence": "TCCATCTCCGCCTCCGCCGCCGCCGCCGCCGACCAAGTCGCGGAGTCACCTAGTGCAG", "binding signal": "8290 fluorescence intensity (a.u.)"}, {"sequence": "CTGATCTTAGTTCTTGTCGACCAAGTGATCTATACTCCCTCGGAGTCACCTAGTGCAG", "binding signal": "8320 fluorescence intensity (a.u.)"}, {"sequence": "CCCACCTCCTCCAATCCACAGCCTCGTCGATCCACTTCAACGGAGTCACCTAGTGCAG", "binding signal": "8110 fluorescence intensity (a.u.)"}, {"sequence": "GTGTATGCACGTTTATAGGTGTGAGTGTATGTTGTAAGCGCGGAGTCACCTAGTGCAG", "binding signal": "8560 fluorescence intensity (a.u.)"}, {"sequence": "TTCCACAAGAGCTAGCATCGTTGAACTTCCTTGCAACATTCGGAGTCACCTAGTGCAG", "binding signal": "8380 fluorescence intensity (a.u.)"}, {"sequence": "GCTTACTGGTTATGGTTGGTAGGGTTGGACGTGTAACAGACGGAGTCACCTAGTGCAG", "binding signal": "20900 fluorescence intensity (a.u.)"}, {"sequence": "GCAAGCACTCATATAAACTGTACACTCACCACTATAAACACGGAGTCACCTAGTGCAG", "binding signal": "9570 fluorescence intensity (a.u.)"}, {"sequence": "ACTCCTCTTCTCTTCATTTTCTTCTTCCCCTGTGCTTCTCCGGAGTCACCTAGTGCAG", "binding signal": "10900 fluorescence intensity (a.u.)"}, {"sequence": "CTCCACCGTCACCTACTCCTACCCCACCATAAAAGGTCACCGGAGTCACCTAGTGCAG", "binding signal": "8700 fluorescence intensity (a.u.)"}, {"sequence": "CCAGTCCCTACGCTCTTGGACTGTTCACTTAGCCGCATCCCGGAGTCACCTAGTGCAG", "binding signal": "12400 fluorescence intensity (a.u.)"}, {"sequence": "AGCCCGGCCTCTCTCTCTCCCGTCCTTGTCTTCTTGCGCGCGGAGTCACCTAGTGCAG", "binding signal": "9480 fluorescence intensity (a.u.)"}, {"sequence": "AAAATATGGAGTAGATGGATAGTACCCTTTTTTTTTTTCCCGGAGTCACCTAGTGCAG", "binding signal": "9780 fluorescence intensity (a.u.)"}, {"sequence": "ATCCATATACCCATTGCTACATCTTCTAGTTTGAACATCTCGGAGTCACCTAGTGCAG", "binding signal": "9870 fluorescence intensity (a.u.)"}, {"sequence": "GGGGTGTGGATTTTGACGGTCGAACCGAGCTTAGGTGATTCGGAGTCACCTAGTGCAG", "binding signal": "9450 fluorescence intensity (a.u.)"}, {"sequence": "CCTGTTAGCTGTGTTTGAGACATCTGAATTTTGTGTACTCCGGAGTCACCTAGTGCAG", "binding signal": "8380 fluorescence intensity (a.u.)"}, {"sequence": "TACTCCAGTACACTTTTTTTGCAGTCCAACCAATCAGCCACGGAGTCACCTAGTGCAG", "binding signal": "9070 fluorescence intensity (a.u.)"}, {"sequence": "GCCAAATATTGACTGCTGGTTTTGTTTACCCTCCGCAGTGCGGAGTCACCTAGTGCAG", "binding signal": "9050 fluorescence intensity (a.u.)"}, {"sequence": "TATGCCTCTTCTCAGGGAGTGCGCTTTTGTCTTGGTCATTCGGAGTCACCTAGTGCAG", "binding signal": "10500 fluorescence intensity (a.u.)"}, {"sequence": "ATAACAACCCTCCTCCGCATCGCTGACCACGTTGACCATCCGGAGTCACCTAGTGCAG", "binding signal": "13000 fluorescence intensity (a.u.)"}, {"sequence": "ACACAACCCAAAAACCCTCCAGGAGGTTGCCTCCATTGACCGGAGTCACCTAGTGCAG", "binding signal": "8460 fluorescence intensity (a.u.)"}, {"sequence": "TATGTGGGCTCAGATCTGCTCTTGACGGGCTTTCATTAAACGGAGTCACCTAGTGCAG", "binding signal": "8630 fluorescence intensity (a.u.)"}, {"sequence": "GGGAGGGTCTGCCTGGCTTACTAATATCCGCCAAAAATAACGGAGTCACCTAGTGCAG", "binding signal": "9450 fluorescence intensity (a.u.)"}, {"sequence": "CTCGCGGTCTTTTAAACATTATTGCCACACTCTTTTCATACGGAGTCACCTAGTGCAG", "binding signal": "10500 fluorescence intensity (a.u.)"}, {"sequence": "GCTGCTCCTGGCACCCAGTTACTGCATGCCCGGTTTCCTCCGGAGTCACCTAGTGCAG", "binding signal": "8820 fluorescence intensity (a.u.)"}]}]}
